The test can be described thus: qHTS Assay for Lipid Storage Modulators in Drosophila S3 Cells.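 On cell number change: cells counted by Cell Tracker Red CMTPX staining in the red channel.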 The settings on record: BODIPY lipid droplet fluorescence, 18-24 h; for cell number change: measured here: cell count max response, cells fed with added oleic acid. Put shortly: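 Drosophila S3 cells got compounds at several concentrations plus oleic acid (400 uM solution). Laser-scanning cytometry with 488 nm excitation read lipid droplets at 500-530 nm and cells at 575-640 nm. Percent activity was relative to 20 uM Triacsin C.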
In general terms: qHTS replaces the single test concentration by a dilution series.

The mark [1] stands for this setting: measured here: cell number channel AC50, cells fed with added oleic acid.
[2] abbreviates: measured here: lipid fluorescence (Fed channel) AC50, cells fed with added oleic acid.

Some of the results follow. Further columns of the screen follow, without active or inactive calls. The list favours compounds with an active or inconclusive main result. Potencies come from curve fits of mixed quality, noted in brackets.

For orientation: AC50 means the concentration at which the activity in the assay is half-maximal.

Consider `COc1ccc(NC(=O)c2ccc(=O)[nH]c2)cc1S(=O)(=O)N1CCOCC1`, for which the cell number change is -4.27%.
The same measure, in the same setting: the value for `O=C(Nc1ccncc1)c1ccc(C(=O)Nc2ccncc2)cc1` was 22.5%.
On to `COc1ccc(C(C)(C)C)cc1NC(=O)C1C2C=CC(C2)C1C(=O)O` (configuration not stated), for which the cell number change was -24.5%. For the same molecule, under setting [1], the concentration at half-maximal activity (AC50) is 4.11 µM [falling, full curve, poor fit].
For the molecule `COc1ccccc1NC(=O)C(=O)N/N=C/c1ccc([N+](=O)[O-])s1`, the cell number change worked out at 24.3%. Besides, the concentration at half-maximal activity (AC50) under setting [2] is 18.4 µM [rising, partial curve, poor fit].
With `Cc1ccc(C(=O)COC(=O)c2cc(C)no2)c(C)c1`, the cell number change turned out to be 14%.
Take `O=C(N1CCOCC1)N1CCN(C(=O)N(c2ccccc2)c2ccccc2)CC1`: the cell number change was -1.61%. Besides, the AC50 under setting [2] is 29.1 µM [falling, single point].
As to `O=C(Cc1cccs1)Nc1ccc(-c2nnn(CC(=O)N3CCOCC3)n2)cc1`, the cell number change is -11.5%. The half-maximal activity concentration (AC50) under setting [2] was 18.4 µM [rising, single point].
`CN1CCc2c(sc(N)c2C(=O)O)C1`: the cell number change is 16%.
Turning to `CCOc1ccccc1N1CCN(C(=O)c2ccc(Cl)c(S(=O)(=O)N3CCCCC3)c2)CC1`, the cell number change was -41.3%. In addition, the AC50 under setting [1] was 0.82 µM [falling, full curve, poor fit].
`Cc1cc(SCCC(=O)O)nc2c(C)cccc12`: the AC50 under setting [1] is 1.84 µM [falling, partial curve].
On to `COC(=O)CSC1=C(C#N)C(c2cccc(OC)c2)CC(=O)N1` (configuration not stated), for which the cell number change is -25.4%. Besides, under setting [2], the half-maximal activity concentration (AC50) was 32.6 µM [falling, single point].
Turning to `CC1CCN(C(=O)c2cc(-c3ccco3)on2)CC1`, the cell number change worked out at 12.9%. Under setting [2], the AC50 is 1.16 µM [falling, single point].
On to `Cc1ccc(CN2CCC(Oc3ccc(C(=O)NCc4ccccn4)cc3)CC2)o1`, for which the cell number change was -8.29%. For the same molecule, under setting [2], the concentration at half-maximal activity (AC50) is 16.4 µM [falling, single point].
On to `O=C(O)CCC(=O)Nc1ccc(F)cc1`, for which the cell number change is -27.6%. For the same molecule, the AC50 under setting [1] is 3.26 µM [falling, full curve, poor fit]. The AC50 under setting [2] was 29.1 µM [falling, single point].
Consider `O=C(COc1ccc(F)cc1)NCCCn1ccnc1`, for which the half-maximal activity concentration (AC50) under setting [2] is 3.26 µM [falling, partial curve].
As for `CC(C)(C)OC(=O)N/N=C\C=C\c1ccc2c(c1)OCO2`, the cell number change amounted to 5.93%. The concentration at half-maximal activity (AC50) under setting [2] was 1.46 µM [rising, full curve].
As to `COc1cccc(-c2sc3ccc(OC)cc3c2C#CCCO)c1`, the cell number change is -29.7%. Moreover, the concentration at half-maximal activity (AC50) under setting [2] is 23.1 µM [falling, single point].
Take `COCCOC(=O)C1=C(C)NC(=O)NC1c1cn(-c2ccccc2)nc1-c1cccs1` (configuration not stated): the cell number change was determined as 35.2%. Further, the concentration at half-maximal activity (AC50) under setting [1] was 29.1 µM [rising, single point].
Regarding `COCCn1nnnc1C(c1cc2cc(C)cc(C)c2[nH]c1=O)N1CCN(c2ccccc2F)CC1` (configuration not stated), the AC50 under setting [1] was 2.59 µM [rising, partial curve].
Take `COc1ccc(-c2cc(C(=O)NCc3ccccc3)no2)cc1OC`: the cell number change is -45.8%. Moreover, the half-maximal activity concentration (AC50) under setting [1] was 13 µM [falling, partial curve]. The half-maximal activity concentration (AC50) under setting [2] is 25.9 µM [falling, partial curve].
In the case of `O=C(Cn1nnc(-c2ccccc2)n1)NCc1cccs1`, the cell number change was -12.7%. The half-maximal activity concentration (AC50) under setting [2] was 20.6 µM [falling, single point].
With `COc1ccc(CCN(C)C(=O)C2CCCN(Cc3ccc(OC)c(OC)c3)C2)cc1OC` (configuration not stated), the cell number change is 24.2%. Besides, under setting [2], the AC50 is 4.11 µM [rising, single point].
In the case of `O=C(COC(=O)c1ccc([N+](=O)[O-])cc1)Nc1ccc(Cl)cn1`, the cell number change is -12%.
As for `CCOc1ccc(NC(=O)N2CCC(n3c(=O)[nH]c4ccccc43)CC2)cc1`, the cell number change is 7.58%. Also, under setting [2], the concentration at half-maximal activity (AC50) was 14.6 µM [rising, single point].
Take `COc1ccc(S(=O)(=O)CCC(=O)N(C)c2ccc(OC)cc2OC)cc1`: the cell number change is -4.79%.
As for `CC(=O)OCCn1c2nc(=O)[nH]c(=O)c-2nc2cc(C)c(C)cc21`, the cell number change is -42.5%. Further, the AC50 under setting [1] is 0.103 µM [falling, full curve, poor fit]. In addition, under setting [2], the AC50 is 6.51 µM [falling, single point].
On to `N#C/C(=N\Nc1cccc(F)c1)C(=N)N1CCCCCC1`, for which the cell number change is -41%.
Same read-out and setting: the value for `CCN1CCN(C(=O)CCc2nnc3ccc(N4CCC5(CC4)OCCO5)nn23)CC1` was 26.3%.
For `Cn1ccnc1C(O)c1ccco1` (configuration not stated), the cell number change is -150%. Besides, the AC50 under setting [1] is 23.1 µM [falling, partial curve]. Under setting [2], the concentration at half-maximal activity (AC50) was 4.61 µM [falling, single point].
As for `CCOC(=O)c1cccc(C(=O)Oc2ccccc2)n1`, the cell number change is -0.223%. For the same molecule, the AC50 under setting [1] was 0.259 µM [falling, full curve, poor fit]. Further, the AC50 under setting [2] is 6.51 µM [falling, single point].
Consider `CCOc1ccccc1N`, for which the cell number change is -3.16%.
As to `CC(C)(C)n1nc2c(c1NC(=O)c1cccs1)CS(=O)C2` (configuration not stated), the cell number change worked out at 7.05%. Moreover, under setting [1], the half-maximal activity concentration (AC50) is 0.103 µM [rising, full curve, poor fit]. Further, the AC50 under setting [2] is 0.116 µM [rising, partial curve, poor fit].
Consider `CCn1c(-c2cc(-c3cc(C)ccc3C)nc3ccccc23)n[nH]c1=S`, for which the half-maximal activity concentration (AC50) under setting [2] was 2.06 µM [rising, partial curve].
Turning to `Cc1ccnc(NC(=S)NC(=O)c2cncc(Br)c2)c1`, the cell number change is -24.3%.
Regarding `CCOc1ccc(S(=O)(=O)NC(C)C(=O)NCc2ccncc2)cc1` (configuration not stated), the cell number change is -1.32%. In addition, the half-maximal activity concentration (AC50) under setting [1] was 4.61 µM [rising, partial curve, poor fit]. Besides, the half-maximal activity concentration (AC50) under setting [2] was 35.5 µM [falling, single point].
As to `CCOc1ccc(C2=CS/C(=C(\C#N)c3nnc4n3CCCCC4)N2CC)cc1`, the concentration at half-maximal activity (AC50) under setting [1] was 2.31 µM [rising, partial curve] and the concentration at half-maximal activity (AC50) under setting [2] is 2.31 µM [rising, partial curve].
Take `COc1ccc(OC)c(NC(=O)CC(Cc2ccccc2OC)C(=O)O)c1` (configuration not stated): the cell number change was -11.6%. In addition, the concentration at half-maximal activity (AC50) under setting [1] is 2.59 µM [rising, single point].
Turning to `CCn1ccc(=N)cc1`, the cell number change was -64.3%. Moreover, under setting [1], the AC50 is 29.1 µM [falling, single point]. Further, the AC50 under setting [2] was 0.164 µM [falling, full curve].
For `CCOC(=O)c1cnn(-c2nc3c(C)cccc3s2)c1C`, the cell number change was found to be 24.5%. Further, the AC50 under setting [2] was 2.59 µM [falling, partial curve].
As for `Nc1cc(OC(=O)c2cccs2)nn1S(=O)(=O)c1ccccc1`, the cell number change is -64.2%. In addition, under setting [1], the half-maximal activity concentration (AC50) was 18.4 µM [falling, single point]. For the same molecule, under setting [2], the AC50 was 8.2 µM [falling, partial curve].
With `O=C(Cc1ccc(F)cc1)N/N=C/c1ccc(-c2ccc(Cl)c(C(=O)O)c2)o1`, the cell number change amounted to 31.2%. In addition, the concentration at half-maximal activity (AC50) under setting [1] was 0.461 µM [falling, full curve].
